By UniProt entry, the sequences of proteins in these tests, tags left out.
UniProt P27695, whole entry, looked up: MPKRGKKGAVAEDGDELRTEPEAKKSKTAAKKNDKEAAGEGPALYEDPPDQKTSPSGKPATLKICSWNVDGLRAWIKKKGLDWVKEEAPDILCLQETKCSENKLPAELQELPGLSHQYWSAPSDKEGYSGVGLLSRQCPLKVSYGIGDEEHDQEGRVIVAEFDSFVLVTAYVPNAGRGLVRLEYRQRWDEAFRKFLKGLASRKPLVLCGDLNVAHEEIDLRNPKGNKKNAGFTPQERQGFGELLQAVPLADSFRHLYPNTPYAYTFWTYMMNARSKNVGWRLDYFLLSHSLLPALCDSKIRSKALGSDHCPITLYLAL

Out of some 350,000 compounds screened, about 1,200 (0.34%) were called active. Inconclusive results, whose numbers are uncertain, are shown with a selection of clear calls. Calls come from the whole dose curve; as a rule, active = well fitted inhibition curve with a large enough effect; inconclusive = small, poorly fitted or top-dose-only effect; inactive = no such curve, though single readings can be large or run the other way. Potencies beside an inconclusive call are fits to weak or partial responses and may not hold up.
These compounds were tested against DNA repair nuclease/redox regulator APEX1 (Homo sapiens) (UniProt P27695) (assay: qHTS Assay for Inhibitors of the Human Apurinic/apyrimidinic Endonuclease 1 (APE1)). Conditions: recombinant APE1, TAMRA/BHQ-2 abasic DNA cleavage fluorescence; activity change, negative = inhibition: at 65.8 µM (top of the series).
Summary of the method: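 Compound pre-exposure to 0.75 nM APE1, 15 min at ambient temperature. Reaction initiated with 50 nM TAMRA/BHQ-2 THF substrate, read immediately in kinetic mode, 525 nm excitation, 598 nm emission.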
In the case of `Cc1ccc(S(=O)(=O)c2c(N)n(-c3ccccc3)c3nc4ccccc4nc23)cc1`, the Potency is reported as inconclusive: 178 µM [inhibitor, partial curve, poor fit]. For `CCc1ccc2nc3nc(C)cc(C)c3c(N)c2c1`, the Potency was inconclusive: 0.0708 µM [inhibitor, single point]. For `CC(C)Sc1nc2c(c(=O)[nH]c(=O)n2C)n1CC(O)COc1ccccc1` (centres undefined), the Potency was inconclusive: 25.1 µM [inhibitor, partial curve, poor fit]. For `CCOC(=O)C1CCN(C(=O)C2(NC(=O)Nc3ccccc3Cl)CCCCC2)CC1`, the Potency was inconclusive: 0.0631 µM [inhibitor, full curve, poor fit]. With `CC(C)NC[C@@H](O)COc1ccc(CCOCC2CC2)cc1` the Potency was inconclusive: 44.7 µM [inhibitor, single point]. In the case of `CS(=O)(=O)N1Cc2ccccc2CC1C(=O)OCC(=O)Nc1ccc2ccccc2c1` (centres undefined), the Potency is reported as inconclusive: 31.6 µM [inhibitor, partial curve]. `COc1ccc(Cl)cc1NC(=O)c1cnc2sccn2c1=O` was tested, and the “activity change, negative = inhibition” value was inactive: 0.344%. With `CCOC(=O)c1c(C)[nH]c(C2=NNC(=Nc3ccccc3OC)SC2)c1C` the Potency was inconclusive: 17.8 µM [inhibitor, single point]. `Cc1n[nH]c(C)c1S(=O)(=O)N(CC(=O)N1CCc2ccccc21)c1ccc(C(C)C)cc1` was tested, and the Potency was inconclusive: 44.7 µM [inhibitor, single point]. For `CC(C)C[C@H](NC(=O)[C@@H](Cc1c[nH]c2ccccc12)NC(=O)[C@H](Cc1ccc(O)cc1)NC(=O)[C@H](CO)NC(=O)[C@H](Cc1c[nH]c2ccccc12)NC(=O)[C@H](Cc1cnc[nH]1)NC(=O)[C@@H]1CCC(=O)N1)C(=O)N[C@@H](CCCN=C(N)N)C(=O)N1CCC[C@H]1C(=O)NCC(N)=O`, the Potency was inconclusive: 28.2 µM [inhibitor, single point]. For `O=C(CNS(=O)(=O)c1ccc([N+](=O)[O-])cc1)N/N=C/c1ccc(O)cc1O`, the “activity change, negative = inhibition” value was inactive: 49%. In the case of `Cc1c(C)c2ccc(OCC(=O)Nc3ccc(S(N)(=O)=O)cc3)c(C)c2oc1=O`, the “activity change, negative = inhibition” value is reported as inactive: -26.2%. `O=C(NC(=S)Nc1ccc(Br)c(Cl)c1)C1CC1` was tested, and the Potency was inconclusive: 37.7 µM [inhibitor, single point]. For `COc1cc2c(cc1OC)CN(C(=O)Nc1ccccc1Cl)CC2`, the “activity change, negative = inhibition” value was inactive: 44%. In the case of `COc1ccc(-c2cc(=O)c3c(O)cc(O)cc3o2)cc1O`, the Potency is reported as inconclusive: 12.6 µM [inhibitor, partial curve]. `O=C(COC(=O)c1ccc([N+](=O)[O-])o1)Nc1cccc(S(=O)(=O)N2CCOCC2)c1` was tested, and the “activity change, negative = inhibition” value was inactive: 11.4%. For `COc1ccc(/C=N/NC(=O)c2cccc([N+](=O)[O-])c2)cc1OC(=O)c1ccc(C)cc1`, the Potency was inconclusive: 22.4 µM [inhibitor, partial curve]. For `Cc1ccc2nc3sc(C(=O)NCc4ccco4)c(N)c3cc2c1`, the “activity change, negative = inhibition” value was inactive: -2.13%. With `O=c1c(-c2cccs2)nc2cnc(N3CCNCC3)nc2n1Cc1cccs1` the Potency was inconclusive: 31.6 µM [inhibitor, single point]. `COC(=O)[C@@]1(Cc2ccc(F)cc2)[C@H]2c3cc(C(=O)N(C)C)n(Cc4ccccc4)c3C[C@H]2CN1C(=O)c1ccccc1` was tested, and the Potency was inconclusive: 3.98 µM [inhibitor, full curve]. In the case of `O=S(=O)(NC1CCCCC1)c1cccc(-c2nnc(-c3ccccc3)o2)c1`, the Potency is reported as inconclusive: 0.0398 µM [inhibitor, full curve]. With `CCN(CC)c1ccc([C@H]2[C@@H]3CCCC[C@]3(O)CCN2CC(=O)NCc2ccco2)cc1` the Potency was inconclusive: 7.94 µM [inhibitor, single point]. For `CCOc1[nH]c(/N=C/c2ccco2)c(C#N)c1C#N`, the Potency was inconclusive: 35.5 µM [inhibitor, single point]. For `COc1ccc(CCC(=O)NCc2ccco2)cc1`, the Potency was inconclusive: 39.8 µM [inhibitor, single point]. `Cc1ccc(S(=O)(=O)Cc2ccc(C(=O)N3CCc4ccccc4C3)o2)cc1` was tested, and the Potency was inconclusive: 28.2 µM [inhibitor, single point]. For `O=C(NC1CC1)c1ccc(Cl)c(S(=O)(=O)N2CCOCC2)c1`, the Potency was inconclusive: 8.44 µM [inhibitor, single point]. For `CN(C)C(=O)Nc1ccc(Oc2ccc(Cl)cc2)cc1`, the Potency was inconclusive: 0.112 µM [inhibitor, single point]. In the case of `O=[N+]([O-])c1ccc(-c2ccc(/C=N/c3c(-c4ccco4)nc4ccccn34)o2)cc1`, the “activity change, negative = inhibition” value is reported as inactive: -4.33%. With `O=C(COC(=O)c1ccc([N+](=O)[O-])o1)c1ccccc1` the “activity change, negative = inhibition” value was inactive: -2.11%. With `CCOC(=O)C1CCN(c2c(NCc3ccc(C(=O)NC(C)CC)cc3)c(=O)c2=O)CC1` (centres undefined) the Potency was inconclusive: 0.0501 µM [inhibitor, full curve, poor fit]. For `CCC1CCCCN1C(=O)CSc1nnc(CNC(=O)COc2ccc(Cl)cc2)o1` (centres undefined), the Potency was inconclusive: 0.891 µM [inhibitor, partial curve, poor fit]. In the case of `COC(=O)c1c(NC(=O)C2C3CCC(O3)C2C(=O)O)sc2c1CCCCCC2` (centres undefined), the “activity change, negative = inhibition” value is reported as inactive: 0.989%. With `O=C(/C=C\c1cn(-c2ccccc2)nc1-c1ccc2c(c1)OCCO2)N1CCOCC1` the Potency was inconclusive: 17.8 µM [inhibitor, partial curve, poor fit]. For `CC(C)C(=O)N[C@H]1CCCN1C(=O)/C=C\c1ccccc1`, the activity change, negative = inhibition was inactive: 38.1% [at 12.4 µM]. With `O=c1c(O)c(-c2ccc(O)c(O)c2)oc2c(OC3OC(CO)C(O)C(O)C3O)c(O)cc(O)c12` (centres undefined) the “activity change, negative = inhibition” value was inactive: 12.1%. For `Cc1nccc2oc(=O)c(NC(=O)c3ccc(Cl)cc3)cc12`, the “activity change, negative = inhibition” value was inactive: -4.99%. In the case of `O=C(NCc1ccc2c(c1)OCO2)c1ccc(S(=O)(=O)N2CCCCC2)cc1`, the Potency is reported as inconclusive: 44.7 µM [inhibitor, single point]. For `C#CCOCCOCCOCCNc1nc(N2CCN(C(=O)[C@H](CCC(=O)O)n3cc(C(N)CO)nn3)CC2)nc(N2CCN(C(=O)[C@H](CCC(=O)O)n3cc(C(N)CO)nn3)CC2)n1` (some centres undefined), the Potency was inconclusive: 11.2 µM [inhibitor, partial curve]. For `CCOc1ccc(N(CC(=O)NCc2ccco2)S(=O)(=O)c2ccc(OC)c(OC)c2)cc1`, the Potency was inconclusive: 39.8 µM [inhibitor, single point]. For `Cc1cccc(-n2ncc3c(NCCN4CCOCC4)ncnc32)c1`, the Potency was inconclusive: 17.8 µM [inhibitor, single point]. In the case of `COc1ccc(OC)c(C2CC(=O)N3CN(c4ccccc4F)CSC3=C2C#N)c1` (centres undefined), the Potency is reported as inconclusive: 28.2 µM [inhibitor, single point]. For `C=C(C)C(=O)Nc1cccc(C2=NOC3(C2)C[C@H](C(N)=O)N(C(=O)c2ccccc2)C3)c1` (some centres undefined), the “activity change, negative = inhibition” value was inactive: -5.34%. For `CCCNC(=O)c1ccc2c(=O)c(O)c(-c3ccc(F)cc3)[nH]c2c1`, the “activity change, negative = inhibition” value was inactive: -4.61%. In the case of `CCCCc1nc2sc3c(SCC(=O)NCc4ccco4)ncnc3c2c2c1CCC2`, the Potency is reported as inconclusive: 8.91 µM [inhibitor, partial curve]. In the case of `N#Cc1cccc(CS(=O)(=O)c2nnnn2C2CCCCC2)c1`, the “activity change, negative = inhibition” value is reported as inactive: -3.08%. With `Oc1ccc(COC2CCN(Cc3ccccc3)C2)c2cccnc12` (centres undefined) the “activity change, negative = inhibition” value was inactive: 24.7%. In the case of `CC(C)(C)NC[C@H](O)COc1nsnc1N1CCOCC1`, the Potency is reported as inconclusive: 0.0126 µM [inhibitor, full curve]. `CC1=C(C(=O)Nc2ccc(CC(=O)NCc3ccc(OC(C)C)cc3)cc2)SCCO1` was tested, and the Potency was inconclusive: 26.7 µM [inhibitor, single point]. `CCOc1ccccc1/C=C/c1onc(C)c1S(=O)(=O)N1CCC(C(=O)NC(C)(C)C)CC1` was tested, and the Potency was inconclusive: 33.6 µM [inhibitor, single point]. In the case of `Cc1ccc([N+](=O)[O-])cc1NC(=O)c1cccs1`, the Potency is reported as inconclusive: 44.7 µM [inhibitor, single point]. With `CCOC(=O)c1noc(C)c1C(=O)Nc1cccc(F)c1` the Potency was inconclusive: 0.158 µM [inhibitor, full curve, poor fit]. For `CCCn1nc(C(=O)OCC(=O)c2c(N)n(C)c(=O)n(C)c2=O)c2ccccc2c1=O`, the Potency was inconclusive: 39.8 µM [inhibitor, single point]. `Cc1cc(C(=O)COC(=O)c2cccn2C)c(C)n1Cc1ccco1` was tested, and the Potency was inconclusive: 28.2 µM [inhibitor, partial curve]. With `O=c1[nH]c(SCCOc2cccc3ccccc23)nc2ccccc12` the Potency was inconclusive: 0.251 µM [inhibitor, full curve, poor fit]. `CCN(CC)c1ccc2c(Cl)c(Br)c(=O)oc2c1` was tested, and the Potency was inconclusive: 20 µM [inhibitor, single point]. `CC1=C(C#N)C(=O)N(C2CCS(=O)(=O)C2)C(=O)/C1=C\c1ccc(C)o1` (centres undefined) was tested, and the Potency was active: 17.8 µM. For `COc1ccccc1-c1nnc(Nc2nc3c(OC)cccc3s2)o1`, the “activity change, negative = inhibition” value was inactive: -7.31%. In the case of `c1ccc(C2NCCn3cccc32)cc1` (centres undefined), the “activity change, negative = inhibition” value is reported as inactive: 13.6%. In the case of `O=C(CCC(=O)Nc1ccc(Cl)cc1Cl)N/N=C/c1ccc([N+](=O)[O-])o1`, the Potency is reported as inconclusive: 39.8 µM [inhibitor, single point]. With `CCn1nnnc1-c1ccc(OC)c(S(=O)(=O)Nc2ccc(C)c(C)c2)c1` the “activity change, negative = inhibition” value was inactive: -2.15%. For `CN1CCN(CC(=O)Nc2sc3c(c2C(=O)Nc2ccccc2)CCCC3)CC1`, the “activity change, negative = inhibition” value was inactive: 5.96%. For `Cn1cc([N+](=O)[O-])c(C(=O)N(Cc2ccccc2)Cc2ccccc2)n1`, the Potency was inconclusive: 0.0251 µM [inhibitor, full curve, poor fit]. With `CCOc1ccc(Oc2cc(N)cc([N+](=O)[O-])c2)cc1` the Potency was inconclusive: 0.562 µM [inhibitor, full curve, poor fit]. For `COc1ccc(-c2csc(NC(=S)NC(=O)c3cccs3)n2)cc1OC`, the “activity change, negative = inhibition” value was inactive: -9.35%.
Note: nearly all actives have a fitted effect of over 55% in size.
Potency is the fitted concentration of half-maximal effect.
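Throughout, for activity change, negative = inhibition: plate controls were vehicle for no effect and reference inhibitor for full effect.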
